# Data taken from the supplement of paper PMC8728848.
# This is one part of the list.
# Legend:
# Assay in all cases: glycan array binding signal (z-score within array); higher = stronger binding
# Conditions in all cases: glycan notation: IUPAC condensed, linker removed
# [1] = molecular target: GlcNAc(b1-3)Gal(b1-3)GalNAc
# Outline: (§1)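 Negative Z-scores can be read as non-binding. The Z-score is calculated within each array and then averaged across arrays of one protein sequence at different concentrations or buffers and across linkers. Arrays, 3228 in all, were curated from the Consortium for Functional Glycomics database and kept only where the protein sequence was available.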
# GlcNAc(b1-3)Gal(b1-4)Glc = molecular target: GlcNAc(b1-3)Gal(b1-4)Glc
# Outline: as §1
# [2] = molecular target: GlcNAc(b1-3)Gal(b1-4)GlcNAc
# Outline: as §1
# [3] = molecular target: GlcNAc(b1-3)Gal(b1-4)GlcNAc(b1-2)Man(a1-3)[GlcNAc(b1-3)Gal(b1-4)GlcNAc(b1-2)Man(a1-6)]Man(b1-4)GlcNAc(b1-4)GlcNAc
# Outline: as §1
# [4] = molecular target: GlcNAc(b1-3)Gal(b1-4)GlcNAc(b1-2)Man(a1-3)[GlcNAc(b1-3)Gal(b1-4)GlcNAc(b1-2)Man(a1-6)]Man(b1-4)GlcNAc(b1-4)[Fuc(a1-6)]GlcNAc
# Outline: as §1
# [5] = molecular target: GlcNAc(b1-3)Gal(b1-4)GlcNAc(b1-2)[GlcNAc(b1-3)Gal(b1-4)GlcNAc(b1-6)]Man(a1-6)[GlcNAc(b1-3)Gal(b1-4)GlcNAc(b1-2)Man(a1-3)]Man(b1-4)GlcNAc(b1-4)GlcNAc
# Outline: as §1
# [6] = molecular target: GlcNAc(b1-3)Gal(b1-4)GlcNAc(b1-3)Gal(b1-4)GlcNAc
# Outline: as §1
# [7] = molecular target: GlcNAc(b1-3)Gal(b1-4)GlcNAc(b1-3)Gal(b1-4)GlcNAc(b1-2)Man(a1-3)[GlcNAc(b1-3)Gal(b1-4)GlcNAc(b1-3)Gal(b1-4)GlcNAc(b1-2)Man(a1-6)]Man(b1-4)GlcNAc(b1-4)GlcNAc
# Outline: as §1
# [8] = molecular target: GlcNAc(b1-3)Gal(b1-4)GlcNAc(b1-3)Gal(b1-4)GlcNAc(b1-2)Man(a1-3)[GlcNAc(b1-3)Gal(b1-4)GlcNAc(b1-3)Gal(b1-4)GlcNAc(b1-2)Man(a1-6)]Man(b1-4)GlcNAc(b1-4)[Fuc(a1-6)]GlcNAc
# Outline: as §1
# [9] = molecular target: GlcNAc(b1-3)Gal(b1-4)GlcNAc(b1-3)Gal(b1-4)GlcNAc(b1-2)[GlcNAc(b1-3)Gal(b1-4)GlcNAc(b1-3)Gal(b1-4)GlcNAc(b1-6)]Man(a1-6)[GlcNAc(b1-3)Gal(b1-4)GlcNAc(b1-3)Gal(b1-4)GlcNAc(b1-2)Man(a1-3)]Man(b1-4)GlcNAc(b1-4)[Fuc(a1-6)]GlcNAc
# Outline: as §1
# [10] = molecular target: GlcNAc(b1-3)Gal(b1-4)GlcNAc(b1-3)Gal(b1-4)GlcNAc(b1-3)Gal(b1-4)GlcNAc(b1-2)Man(a1-3)[GlcNAc(b1-3)Gal(b1-4)GlcNAc(b1-3)Gal(b1-4)GlcNAc(b1-3)Gal(b1-4)GlcNAc(b1-2)Man(a1-6)]Man(b1-4)GlcNAc(b1-4)GlcNAc
# Outline: as §1
# [11] = molecular target: GlcNAc(b1-3)Gal(b1-4)GlcNAc(b1-3)Gal(b1-4)GlcNAc(b1-3)Gal(b1-4)GlcNAc(b1-2)Man(a1-3)[GlcNAc(b1-3)Gal(b1-4)GlcNAc(b1-3)Gal(b1-4)GlcNAc(b1-3)Gal(b1-4)GlcNAc(b1-2)Man(a1-6)]Man(b1-4)GlcNAc(b1-4)[Fuc(a1-6)]GlcNAc
# Outline: as §1
# [12] = molecular target: GlcNAc(b1-3)Gal(b1-4)GlcNAc(b1-3)Gal(b1-4)GlcNAc(b1-3)Gal(b1-4)GlcNAc(b1-2)[GlcNAc(b1-3)Gal(b1-4)GlcNAc(b1-3)Gal(b1-4)GlcNAc(b1-3)Gal(b1-4)GlcNAc(b1-6)]Man(a1-6)[GlcNAc(b1-3)Gal(b1-4)GlcNAc(b1-3)Gal(b1-4)GlcNAc(b1-3)Gal(b1-4)GlcNAc(b1-2)Man(a1-3)]Man(b1-4)GlcNAc(b1-4)[Fuc(a1-6)]GlcNAc
# Outline: as §1
# [13] = molecular target: GlcNAc(b1-3)Gal(b1-4)GlcNAc(b1-3)Gal(b1-4)GlcNAc(b1-3)Gal(b1-4)GlcNAc(b1-3)Gal(b1-4)GlcNAc(b1-2)Man(a1-3)[GlcNAc(b1-3)Gal(b1-4)GlcNAc(b1-3)Gal(b1-4)GlcNAc(b1-3)Gal(b1-4)GlcNAc(b1-3)Gal(b1-4)GlcNAc(b1-2)Man(a1-6)]Man(b1-4)GlcNAc(b1-4)GlcNAc
# Outline: as §1
# [14] = molecular target: GlcNAc(b1-3)Gal(b1-4)GlcNAc(b1-3)Gal(b1-4)GlcNAc(b1-3)Gal(b1-4)GlcNAc(b1-3)Gal(b1-4)GlcNAc(b1-2)Man(a1-3)[GlcNAc(b1-3)Gal(b1-4)GlcNAc(b1-3)Gal(b1-4)GlcNAc(b1-3)Gal(b1-4)GlcNAc(b1-3)Gal(b1-4)GlcNAc(b1-2)Man(a1-6)]Man(b1-4)GlcNAc(b1-4)[Fuc(a1-6)]GlcNAc
# Outline: as §1
# [15] = molecular target: GlcNAc(b1-3)Gal(b1-4)GlcNAc(b1-3)Gal(b1-4)GlcNAc(b1-3)Gal(b1-4)GlcNAc(b1-3)Gal(b1-4)GlcNAc(b1-2)[GlcNAc(b1-3)Gal(b1-4)GlcNAc(b1-3)Gal(b1-4)GlcNAc(b1-3)Gal(b1-4)GlcNAc(b1-3)Gal(b1-4)GlcNAc(b1-6)]Man(a1-6)[GlcNAc(b1-3)Gal(b1-4)GlcNAc(b1-3)Gal(b1-4)GlcNAc(b1-3)Gal(b1-4)GlcNAc(b1-3)Gal(b1-4)GlcNAc(b1-2)Man(a1-3)]Man(b1-4)GlcNAc(b1-4)[Fuc(a1-6)]GlcNAc
# Outline: as §1
# [16] = molecular target: GlcNAc(b1-3)Gal(b1-4)GlcNAc(b1-3)Gal(b1-4)GlcNAc(b1-3)GalNAc
# Outline: as §1
# [17] = molecular target: GlcNAc(b1-3)Gal(b1-4)GlcNAc(b1-3)GalNAc
# Outline: as §1
# [18] = molecular target: GlcNAc(b1-3)Gal(b1-4)GlcNAc(b1-3)[GlcNAc(b1-3)Gal(b1-4)GlcNAc(b1-3)]GalNAc
# Outline: as §1
# [19] = molecular target: GlcNAc(b1-3)Gal(b1-4)GlcNAc(b1-6)[Gal(b1-3)]GalNAc
# Outline: as §1
# [20] = molecular target: GlcNAc(b1-3)Gal(b1-4)GlcNAc(b1-6)[GlcNAc(b1-3)Gal(b1-3)]GalNAc
# Outline: as §1
# [21] = molecular target: GlcNAc(b1-3)Gal(b1-4)GlcNAc(b1-6)[GlcNAc(b1-3)]Gal(b1-4)GlcNAc
# Outline: as §1
# GlcNAc(b1-3)GalNAc = molecular target: GlcNAc(b1-3)GalNAc
# Outline: as §1
# GlcNAc(b1-3)Man = molecular target: GlcNAc(b1-3)Man
# Outline: as §1
# [22] = molecular target: GlcNAc(b1-3)[GlcNAc(b1-4)][GlcNAc(b1-6)]GlcNAc
# Outline: as §1
# [23] = molecular target: GlcNAc(b1-3)[GlcNAc(b1-6)]Gal(b1-4)GlcNAc
# Outline: as §1
# [24] = molecular target: GlcNAc(b1-3)[GlcNAc(b1-6)]GalNAc
# Outline: as §1
# [25] = molecular target: GlcNAc(b1-4)Gal(b1-4)GlcNAc
# Outline: as §1
# GlcNAc(b1-4)GlcNAc = molecular target: GlcNAc(b1-4)GlcNAc
# Outline: as §1
# [26] = molecular target: GlcNAc(b1-4)GlcNAc(b1-4)GlcNAc
# Outline: as §1
# [27] = molecular target: GlcNAc(b1-4)GlcNAc(b1-4)GlcNAc(b1-4)GlcNAc(b1-4)GlcNAc
# Outline: as §1
# [28] = molecular target: GlcNAc(b1-4)GlcNAc(b1-4)GlcNAc(b1-4)GlcNAc(b1-4)GlcNAc(b1-4)GlcNAc
# Outline: as §1
# [29] = molecular target: GlcNAc(b1-4)[GlcNAc(b1-6)]GalNAc
# Outline: as §1
# [30] = molecular target: GlcNAc(b1-6)Gal(b1-4)GlcNAc
# Outline: as §1
# GlcNAc(b1-6)GalNAc = molecular target: GlcNAc(b1-6)GalNAc
# Outline: as §1
# [31] = molecular target: GlcNAc6S(b1-3)Gal(b1-4)GlcNAc
# Outline: as §1
# Kdn(a2-3)Gal(b1-3)GalNAc = molecular target: Kdn(a2-3)Gal(b1-3)GalNAc
# Outline: as §1
binder,measurement,setting,value
"AT3G09350(27) (Arabidopsis thaliana), Q84J81 (protein) MAKDGPNWDGLLKWSLSHADGTRPTRQLSEEDRKWFMEAMQSQTVDVVKRMKEITLVMQTPEQVLVEHGVTPEDIQDLLDELQEHVESIDMANDLHSIGGLVPLLSFLKNSHANIRAKAADVVSTIVQNNPRSQELVMETNALESLLSNFTSDTDIHARTQALGAISSLIRHNKPGVTAFKLANGYAGLRDALASDSVRFQRKALNLLQYLLQEDDSDRSIATGLGFPRVMMHLASSDDAEIREAALRGLLELSREKNDGSSSIDKSDEKLRQLLEERIKGITLMSQEDLETVKEERQLVDLLWSICYNEPSSLREKGLVVLPGEDALPPDVASKLFEPPLRASAANRNATEKKDEPMKLLGP",glycan array binding signal (z-score),[1],-0.393
same,glycan array binding signal (z-score),GlcNAc(b1-3)Gal(b1-4)Glc,-1.21
same,glycan array binding signal (z-score),[2],-0.201
same,glycan array binding signal (z-score),[3],0.133
same,glycan array binding signal (z-score),[4],0.571
same,glycan array binding signal (z-score),[5],0.001
same,glycan array binding signal (z-score),[6],-0.546
same,glycan array binding signal (z-score),[7],0.28
same,glycan array binding signal (z-score),[8],-0.293
same,glycan array binding signal (z-score),[9],0.509
same,glycan array binding signal (z-score),[10],0.057
same,glycan array binding signal (z-score),[11],0.795
same,glycan array binding signal (z-score),[12],0.561
same,glycan array binding signal (z-score),[13],-0.079
same,glycan array binding signal (z-score),[14],0.853
same,glycan array binding signal (z-score),[15],0.163
same,glycan array binding signal (z-score),[16],0.585
same,glycan array binding signal (z-score),[17],-0.186
same,glycan array binding signal (z-score),[18],-0.037
same,glycan array binding signal (z-score),[19],0.003
same,glycan array binding signal (z-score),[20],-0.666
same,glycan array binding signal (z-score),[21],0.943
same,glycan array binding signal (z-score),GlcNAc(b1-3)GalNAc,0.246
same,glycan array binding signal (z-score),GlcNAc(b1-3)Man,-0.392
same,glycan array binding signal (z-score),[22],-0.064
same,glycan array binding signal (z-score),[23],0.47
same,glycan array binding signal (z-score),[24],0.027
same,glycan array binding signal (z-score),[25],-0.051
same,glycan array binding signal (z-score),GlcNAc(b1-4)GlcNAc,-0.693
same,glycan array binding signal (z-score),[26],-0.893
same,glycan array binding signal (z-score),[27],0.105
same,glycan array binding signal (z-score),[28],-0.407
same,glycan array binding signal (z-score),[29],-0.008
same,glycan array binding signal (z-score),[30],0.795
same,glycan array binding signal (z-score),GlcNAc(b1-6)GalNAc,0.847
same,glycan array binding signal (z-score),[31],0.575
same,glycan array binding signal (z-score),Kdn(a2-3)Gal(b1-3)GalNAc,-0.486

# Nine entries from above, as tab-separated lines.
binder	measurement	setting	value
AT3G09350(27) (Arabidopsis thaliana), Q84J81 (protein) MAKDGPNWDGLLKWSLSHADGTRPTRQLSEEDRKWFMEAMQSQTVDVVKRMKEITLVMQTPEQVLVEHGVTPEDIQDLLDELQEHVESIDMANDLHSIGGLVPLLSFLKNSHANIRAKAADVVSTIVQNNPRSQELVMETNALESLLSNFTSDTDIHARTQALGAISSLIRHNKPGVTAFKLANGYAGLRDALASDSVRFQRKALNLLQYLLQEDDSDRSIATGLGFPRVMMHLASSDDAEIREAALRGLLELSREKNDGSSSIDKSDEKLRQLLEERIKGITLMSQEDLETVKEERQLVDLLWSICYNEPSSLREKGLVVLPGEDALPPDVASKLFEPPLRASAANRNATEKKDEPMKLLGP	glycan array binding signal (z-score)	[2]	-0.201
same	glycan array binding signal (z-score)	[5]	0.001
same	glycan array binding signal (z-score)	[9]	0.509
same	glycan array binding signal (z-score)	[13]	-0.079
same	glycan array binding signal (z-score)	[15]	0.163
same	glycan array binding signal (z-score)	[17]	-0.186
same	glycan array binding signal (z-score)	[18]	-0.037
same	glycan array binding signal (z-score)	[29]	-0.008
same	glycan array binding signal (z-score)	[31]	0.575
